# This is one part of the list. Hit calls seldom repeat between salt and free forms of one compound.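 In K562 cells expressing nanoluciferase-fused kinases, luminescence was recorded at 4 h intervals between 2 and 18 h, normalized as percent of control with DMSO at 100% and a positive control at 0%. A significant (2 sigma) signal drop marks a time point as decreased. The authors' rule for a hit is not shown and takes in more than the number of time points.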
# The chains behind the UniProt entries cited, without tags or fusion partners. Where a name states a change or a piece, a line headed by the entry shows the natural chain unless it says otherwise.
# UniProt P07949, whole entry, looked up: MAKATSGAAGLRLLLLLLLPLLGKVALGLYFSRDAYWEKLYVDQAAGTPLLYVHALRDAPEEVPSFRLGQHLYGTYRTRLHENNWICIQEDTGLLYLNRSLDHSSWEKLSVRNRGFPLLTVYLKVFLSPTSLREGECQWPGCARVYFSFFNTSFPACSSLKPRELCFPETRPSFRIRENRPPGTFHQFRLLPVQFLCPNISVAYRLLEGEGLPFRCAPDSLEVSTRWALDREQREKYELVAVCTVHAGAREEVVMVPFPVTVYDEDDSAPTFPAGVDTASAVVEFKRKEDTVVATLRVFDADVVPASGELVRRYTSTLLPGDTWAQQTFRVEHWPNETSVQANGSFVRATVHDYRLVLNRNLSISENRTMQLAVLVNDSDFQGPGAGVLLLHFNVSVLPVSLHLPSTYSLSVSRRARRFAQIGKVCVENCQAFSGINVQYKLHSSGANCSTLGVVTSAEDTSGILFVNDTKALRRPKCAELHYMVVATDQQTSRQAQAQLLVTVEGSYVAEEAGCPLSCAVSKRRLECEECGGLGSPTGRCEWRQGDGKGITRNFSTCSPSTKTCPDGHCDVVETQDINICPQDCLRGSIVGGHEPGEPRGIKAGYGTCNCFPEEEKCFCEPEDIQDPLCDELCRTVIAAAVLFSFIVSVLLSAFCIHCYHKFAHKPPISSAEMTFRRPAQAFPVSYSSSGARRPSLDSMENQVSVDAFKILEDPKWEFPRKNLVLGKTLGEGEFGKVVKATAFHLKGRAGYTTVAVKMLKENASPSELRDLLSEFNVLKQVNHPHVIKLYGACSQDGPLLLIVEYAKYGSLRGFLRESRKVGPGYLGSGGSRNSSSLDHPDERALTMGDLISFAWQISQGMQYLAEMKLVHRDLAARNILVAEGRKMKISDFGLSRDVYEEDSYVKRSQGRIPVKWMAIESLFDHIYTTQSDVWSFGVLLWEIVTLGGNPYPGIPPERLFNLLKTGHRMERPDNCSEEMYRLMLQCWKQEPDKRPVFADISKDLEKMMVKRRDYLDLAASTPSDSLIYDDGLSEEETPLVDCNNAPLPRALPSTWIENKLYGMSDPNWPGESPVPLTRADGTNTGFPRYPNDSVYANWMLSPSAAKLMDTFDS
# UniProt Q9BRS2: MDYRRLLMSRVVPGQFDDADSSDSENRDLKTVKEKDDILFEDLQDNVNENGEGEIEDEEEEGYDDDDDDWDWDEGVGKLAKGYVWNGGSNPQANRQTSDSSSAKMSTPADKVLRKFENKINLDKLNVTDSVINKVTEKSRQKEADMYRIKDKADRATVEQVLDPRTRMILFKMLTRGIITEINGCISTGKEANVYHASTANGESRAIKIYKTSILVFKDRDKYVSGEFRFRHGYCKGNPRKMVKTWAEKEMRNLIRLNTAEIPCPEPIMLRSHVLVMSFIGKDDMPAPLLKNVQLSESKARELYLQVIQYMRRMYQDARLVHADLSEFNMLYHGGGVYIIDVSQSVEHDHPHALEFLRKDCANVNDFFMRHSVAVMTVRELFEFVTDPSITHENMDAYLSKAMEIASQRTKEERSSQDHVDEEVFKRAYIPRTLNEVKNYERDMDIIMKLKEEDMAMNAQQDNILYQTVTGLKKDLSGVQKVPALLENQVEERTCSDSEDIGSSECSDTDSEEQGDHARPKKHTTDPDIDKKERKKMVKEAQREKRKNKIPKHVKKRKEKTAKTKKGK
# UniProt Q13546: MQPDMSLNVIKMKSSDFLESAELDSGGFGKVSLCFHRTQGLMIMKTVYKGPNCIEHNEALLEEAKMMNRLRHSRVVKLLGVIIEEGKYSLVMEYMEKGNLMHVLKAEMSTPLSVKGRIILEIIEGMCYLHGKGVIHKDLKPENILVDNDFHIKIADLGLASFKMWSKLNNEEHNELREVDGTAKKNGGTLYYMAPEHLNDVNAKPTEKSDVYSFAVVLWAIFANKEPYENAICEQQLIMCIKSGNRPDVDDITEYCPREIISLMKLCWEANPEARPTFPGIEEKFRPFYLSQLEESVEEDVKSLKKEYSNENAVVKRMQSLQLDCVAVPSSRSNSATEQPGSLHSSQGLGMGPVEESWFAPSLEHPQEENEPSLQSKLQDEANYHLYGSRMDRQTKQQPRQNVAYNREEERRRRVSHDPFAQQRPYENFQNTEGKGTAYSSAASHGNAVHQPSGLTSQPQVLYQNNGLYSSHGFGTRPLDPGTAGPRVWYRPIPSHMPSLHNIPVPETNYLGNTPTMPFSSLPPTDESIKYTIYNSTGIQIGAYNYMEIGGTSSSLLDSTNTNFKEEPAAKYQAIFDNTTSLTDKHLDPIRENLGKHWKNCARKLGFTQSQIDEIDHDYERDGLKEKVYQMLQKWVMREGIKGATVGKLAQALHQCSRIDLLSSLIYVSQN
# UniProt Q15418, whole entry: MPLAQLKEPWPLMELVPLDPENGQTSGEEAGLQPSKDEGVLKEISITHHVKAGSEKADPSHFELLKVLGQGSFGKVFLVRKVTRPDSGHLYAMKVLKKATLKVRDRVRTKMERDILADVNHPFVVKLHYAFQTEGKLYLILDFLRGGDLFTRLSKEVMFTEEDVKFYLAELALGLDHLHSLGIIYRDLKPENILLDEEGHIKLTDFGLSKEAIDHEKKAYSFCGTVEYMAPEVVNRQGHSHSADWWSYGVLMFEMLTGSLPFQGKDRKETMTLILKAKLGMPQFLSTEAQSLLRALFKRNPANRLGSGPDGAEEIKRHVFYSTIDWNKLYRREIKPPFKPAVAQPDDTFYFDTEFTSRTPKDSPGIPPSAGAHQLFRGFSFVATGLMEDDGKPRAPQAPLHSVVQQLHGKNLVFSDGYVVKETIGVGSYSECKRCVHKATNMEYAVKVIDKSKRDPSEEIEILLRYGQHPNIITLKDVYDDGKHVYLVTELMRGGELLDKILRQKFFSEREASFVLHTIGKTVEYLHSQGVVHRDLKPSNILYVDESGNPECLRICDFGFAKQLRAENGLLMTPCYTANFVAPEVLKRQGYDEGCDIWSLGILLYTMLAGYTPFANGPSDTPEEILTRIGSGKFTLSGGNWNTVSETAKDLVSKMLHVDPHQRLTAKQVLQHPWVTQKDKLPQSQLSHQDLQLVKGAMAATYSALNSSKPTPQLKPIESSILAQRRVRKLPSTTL
# UniProt Q9NYA1, whole entry: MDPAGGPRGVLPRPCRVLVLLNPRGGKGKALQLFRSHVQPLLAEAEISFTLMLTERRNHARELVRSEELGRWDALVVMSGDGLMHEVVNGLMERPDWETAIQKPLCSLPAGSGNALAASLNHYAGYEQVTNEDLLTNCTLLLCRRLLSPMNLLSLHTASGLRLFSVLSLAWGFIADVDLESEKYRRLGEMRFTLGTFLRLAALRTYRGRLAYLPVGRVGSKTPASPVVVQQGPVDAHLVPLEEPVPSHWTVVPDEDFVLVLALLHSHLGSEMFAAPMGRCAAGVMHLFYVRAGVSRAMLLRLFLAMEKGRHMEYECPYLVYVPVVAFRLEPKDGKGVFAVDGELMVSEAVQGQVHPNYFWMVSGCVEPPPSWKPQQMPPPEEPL
# UniProt Q9Y6E0: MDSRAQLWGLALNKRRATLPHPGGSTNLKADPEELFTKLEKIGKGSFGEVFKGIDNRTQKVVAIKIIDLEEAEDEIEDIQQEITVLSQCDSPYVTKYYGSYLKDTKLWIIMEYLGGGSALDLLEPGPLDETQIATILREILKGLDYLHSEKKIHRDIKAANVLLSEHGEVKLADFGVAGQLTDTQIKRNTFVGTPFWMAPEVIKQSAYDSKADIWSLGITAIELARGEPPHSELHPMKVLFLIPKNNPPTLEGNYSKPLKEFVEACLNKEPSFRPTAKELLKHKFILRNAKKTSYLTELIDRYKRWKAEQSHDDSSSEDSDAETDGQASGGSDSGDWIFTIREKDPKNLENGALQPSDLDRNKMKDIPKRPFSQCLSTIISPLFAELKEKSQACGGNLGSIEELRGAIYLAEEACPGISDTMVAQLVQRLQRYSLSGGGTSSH
# UniProt P29597: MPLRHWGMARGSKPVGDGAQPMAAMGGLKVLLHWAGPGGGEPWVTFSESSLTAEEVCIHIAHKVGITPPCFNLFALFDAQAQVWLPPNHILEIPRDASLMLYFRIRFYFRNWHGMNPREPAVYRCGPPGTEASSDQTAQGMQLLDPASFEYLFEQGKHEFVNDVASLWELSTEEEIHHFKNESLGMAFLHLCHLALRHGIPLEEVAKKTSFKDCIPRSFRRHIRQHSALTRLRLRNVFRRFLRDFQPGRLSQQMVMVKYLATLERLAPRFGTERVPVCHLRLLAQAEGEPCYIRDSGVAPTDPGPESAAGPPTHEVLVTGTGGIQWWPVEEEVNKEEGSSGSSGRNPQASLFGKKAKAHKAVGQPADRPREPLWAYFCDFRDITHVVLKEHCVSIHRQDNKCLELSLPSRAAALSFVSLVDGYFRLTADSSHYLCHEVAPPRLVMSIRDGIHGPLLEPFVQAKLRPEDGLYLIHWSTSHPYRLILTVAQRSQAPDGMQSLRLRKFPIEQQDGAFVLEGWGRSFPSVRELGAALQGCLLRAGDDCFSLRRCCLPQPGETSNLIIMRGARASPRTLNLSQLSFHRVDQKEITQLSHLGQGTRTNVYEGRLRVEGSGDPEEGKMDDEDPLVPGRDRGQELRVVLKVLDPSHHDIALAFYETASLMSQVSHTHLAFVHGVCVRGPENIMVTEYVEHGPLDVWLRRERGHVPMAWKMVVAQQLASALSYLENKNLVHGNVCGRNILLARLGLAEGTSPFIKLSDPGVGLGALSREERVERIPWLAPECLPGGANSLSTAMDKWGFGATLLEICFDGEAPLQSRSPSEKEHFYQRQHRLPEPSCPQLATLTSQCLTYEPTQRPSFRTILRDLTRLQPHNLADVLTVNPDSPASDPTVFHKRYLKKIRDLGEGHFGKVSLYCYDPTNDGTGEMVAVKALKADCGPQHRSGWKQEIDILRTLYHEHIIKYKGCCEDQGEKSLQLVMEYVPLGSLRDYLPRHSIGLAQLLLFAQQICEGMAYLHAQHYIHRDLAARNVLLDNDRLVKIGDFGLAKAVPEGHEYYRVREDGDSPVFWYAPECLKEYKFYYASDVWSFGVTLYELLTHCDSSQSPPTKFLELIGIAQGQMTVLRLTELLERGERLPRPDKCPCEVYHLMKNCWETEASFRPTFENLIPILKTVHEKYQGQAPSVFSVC
# UniProt P07947, whole entry, looked up: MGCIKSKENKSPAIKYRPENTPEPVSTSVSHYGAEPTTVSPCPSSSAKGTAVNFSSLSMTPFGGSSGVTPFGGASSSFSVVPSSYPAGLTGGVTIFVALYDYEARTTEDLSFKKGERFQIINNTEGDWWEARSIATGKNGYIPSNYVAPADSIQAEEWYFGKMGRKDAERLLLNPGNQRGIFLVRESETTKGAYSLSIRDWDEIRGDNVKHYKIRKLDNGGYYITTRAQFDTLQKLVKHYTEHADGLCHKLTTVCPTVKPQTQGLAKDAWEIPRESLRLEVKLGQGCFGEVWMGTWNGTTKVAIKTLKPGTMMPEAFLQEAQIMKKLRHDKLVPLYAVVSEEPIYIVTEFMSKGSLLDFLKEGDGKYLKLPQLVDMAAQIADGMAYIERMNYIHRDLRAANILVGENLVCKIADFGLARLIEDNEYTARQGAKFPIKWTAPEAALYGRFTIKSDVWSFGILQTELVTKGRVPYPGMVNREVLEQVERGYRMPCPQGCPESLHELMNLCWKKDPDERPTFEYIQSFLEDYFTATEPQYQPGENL
# UniProt P43403: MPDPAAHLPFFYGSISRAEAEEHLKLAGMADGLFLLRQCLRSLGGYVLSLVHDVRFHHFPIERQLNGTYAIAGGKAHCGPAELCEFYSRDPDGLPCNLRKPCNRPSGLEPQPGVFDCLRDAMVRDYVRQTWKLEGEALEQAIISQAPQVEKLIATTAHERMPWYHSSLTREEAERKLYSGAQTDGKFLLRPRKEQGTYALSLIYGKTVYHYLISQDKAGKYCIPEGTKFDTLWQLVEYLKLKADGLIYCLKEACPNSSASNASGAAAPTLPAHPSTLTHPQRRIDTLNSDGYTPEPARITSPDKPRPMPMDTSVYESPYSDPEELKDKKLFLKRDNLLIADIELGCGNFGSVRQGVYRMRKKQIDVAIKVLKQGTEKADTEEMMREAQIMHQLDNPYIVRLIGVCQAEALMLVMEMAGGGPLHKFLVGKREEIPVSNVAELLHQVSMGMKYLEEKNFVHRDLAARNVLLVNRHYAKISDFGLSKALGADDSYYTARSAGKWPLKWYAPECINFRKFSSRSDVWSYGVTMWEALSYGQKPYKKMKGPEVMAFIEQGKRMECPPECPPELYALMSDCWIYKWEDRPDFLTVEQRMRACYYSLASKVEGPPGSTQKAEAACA
# UniProt P11802: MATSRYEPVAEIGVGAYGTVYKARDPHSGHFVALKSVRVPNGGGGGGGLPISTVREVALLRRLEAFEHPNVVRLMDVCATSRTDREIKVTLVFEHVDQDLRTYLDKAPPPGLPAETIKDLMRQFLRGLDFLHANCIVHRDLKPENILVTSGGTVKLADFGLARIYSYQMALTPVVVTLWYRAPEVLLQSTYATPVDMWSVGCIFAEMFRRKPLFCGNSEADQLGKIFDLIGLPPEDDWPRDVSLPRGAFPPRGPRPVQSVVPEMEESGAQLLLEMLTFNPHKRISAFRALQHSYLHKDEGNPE
# How the values were obtained:
# Settings in all cases: K562, 2-18 h
# [1] = target: RET (UniProt P07949); assay: kinase-Nluc reporter destabilization hit call (1 = scored as downregulated) (binary); higher = compound decreases kinase abundance
# [2] = target: RET_M918T (clone: RET_mut) (UniProt P07949); assay: as above
# [3] = target: RIOK1 (UniProt Q9BRS2); assay: as above
# [4] = target: RIPK1 (UniProt Q13546); assay: as above
# [5] = target: RIPK2 (UniProt O43353); assay: as above
# [6] = target: ROR2 (UniProt Q01974); assay: as above
# [7] = target: RPS6KA1 (UniProt Q15418); assay: as above
# [8] = target: SPHK1 (UniProt Q9NYA1); assay: as above
# [9] = target: SRC (UniProt P12931); assay: as above
# [10] = target: STK24 (UniProt Q9Y6E0); assay: as above
# [11] = target: STK38 (UniProt Q15208); assay: as above
# [12] = target: SYK (UniProt P43405); assay: as above
# [13] = target: TEC (UniProt P42680); assay: as above
# [14] = target: TYK2 (UniProt P29597); assay: as above
# [15] = target: ULK3 (UniProt Q6PHR2); assay: as above
# [16] = target: YES1 (UniProt P07947); assay: as above
# [17] = target: ZAK (UniProt Q9NYL2); assay: as above
# [18] = target: ZAP70 (UniProt P43403); assay: as above
# [19] = target: CDK4 (UniProt P11802); assay: number of time points (of 4; 2 h point missing) at which kinase-Nluc abundance scored as decreased, DMSO-normalised (count); higher = more persistent destabilization
# [20] = target: CDK7 (UniProt P50613); assay: as above
compound,measurement,setting,value
Cc1ccc(Nc2nccc(N(C)c3ccc4c(C)n(C)nc4c3)n2)cc1S(N)(=O)=O [Pazopanib],kinase-Nluc reporter destabilization hit call,[1]; 10 µM,inactive: 0
same,kinase-Nluc reporter destabilization hit call,[2]; 10 µM,inactive: 0
same,kinase-Nluc reporter destabilization hit call,[3]; 10 µM,inactive: 0
same,kinase-Nluc reporter destabilization hit call,[4]; 10 µM,inactive: 0
same,kinase-Nluc reporter destabilization hit call,[5]; 10 µM,inactive: 0
same,kinase-Nluc reporter destabilization hit call,[6]; 10 µM,inactive: 0
same,kinase-Nluc reporter destabilization hit call,[7]; 10 µM,inactive: 0
same,kinase-Nluc reporter destabilization hit call,[8]; 10 µM,inactive: 0
same,kinase-Nluc reporter destabilization hit call,[9]; 10 µM,inactive: 0
same,kinase-Nluc reporter destabilization hit call,[10]; 10 µM,inactive: 0
same,kinase-Nluc reporter destabilization hit call,[11]; 10 µM,inactive: 0
same,kinase-Nluc reporter destabilization hit call,[12]; 10 µM,inactive: 0
same,kinase-Nluc reporter destabilization hit call,[13]; 10 µM,inactive: 0
same,kinase-Nluc reporter destabilization hit call,[14]; 10 µM,inactive: 0
same,kinase-Nluc reporter destabilization hit call,[15]; 10 µM,inactive: 0
same,kinase-Nluc reporter destabilization hit call,[16]; 10 µM,inactive: 0
same,kinase-Nluc reporter destabilization hit call,[17]; 10 µM,inactive: 0
same,kinase-Nluc reporter destabilization hit call,[18]; 10 µM,inactive: 0
same,number of time points,[19]; 10 µM,0
same,number of time points,[20]; 10 µM,0
CC(C)[C@@](C)(O)[C@@H]1CN(c2nc(-c3[nH]nc4ncccc34)c(F)cc2Cl)CCN1,kinase-Nluc reporter destabilization hit call,[1]; 10 µM,inactive: 0
same,kinase-Nluc reporter destabilization hit call,[2]; 10 µM,inactive: 0
same,kinase-Nluc reporter destabilization hit call,[3]; 10 µM,inactive: 0
same,kinase-Nluc reporter destabilization hit call,[4]; 10 µM,inactive: 0
same,kinase-Nluc reporter destabilization hit call,[5]; 10 µM,inactive: 0
same,kinase-Nluc reporter destabilization hit call,[6]; 10 µM,inactive: 0
same,kinase-Nluc reporter destabilization hit call,[7]; 10 µM,inactive: 0
same,kinase-Nluc reporter destabilization hit call,[8]; 10 µM,inactive: 0
same,kinase-Nluc reporter destabilization hit call,[9]; 10 µM,inactive: 0
same,kinase-Nluc reporter destabilization hit call,[10]; 10 µM,inactive: 0
same,kinase-Nluc reporter destabilization hit call,[11]; 10 µM,inactive: 0
same,kinase-Nluc reporter destabilization hit call,[12]; 10 µM,inactive: 0
same,kinase-Nluc reporter destabilization hit call,[13]; 10 µM,inactive: 0
same,kinase-Nluc reporter destabilization hit call,[14]; 10 µM,inactive: 0
same,kinase-Nluc reporter destabilization hit call,[15]; 10 µM,inactive: 0
same,kinase-Nluc reporter destabilization hit call,[16]; 10 µM,inactive: 0
same,kinase-Nluc reporter destabilization hit call,[17]; 10 µM,inactive: 0
same,kinase-Nluc reporter destabilization hit call,[18]; 10 µM,inactive: 0
same,number of time points,[19]; 10 µM,0
same,number of time points,[20]; 10 µM,3
Cc1cc(C)n2c1C=C1C=CC(CCC(=O)NCCN3CCN(C/C=C/C(=O)N4CCCC(n5nc(-c6ccc(Oc7ccccc7)cc6)c6c(N)ncnc65)C4)CC3)=[N+]1[B-]2(F)F (stereo unspecified),kinase-Nluc reporter destabilization hit call,[1]; 2.5 µM,inactive: 0
same,kinase-Nluc reporter destabilization hit call,[3]; 2.5 µM,inactive: 0
same,kinase-Nluc reporter destabilization hit call,[4]; 2.5 µM,inactive: 0
same,kinase-Nluc reporter destabilization hit call,[5]; 2.5 µM,inactive: 0
same,kinase-Nluc reporter destabilization hit call,[6]; 2.5 µM,inactive: 0
same,kinase-Nluc reporter destabilization hit call,[7]; 2.5 µM,inactive: 0
same,kinase-Nluc reporter destabilization hit call,[8]; 2.5 µM,inactive: 0
same,kinase-Nluc reporter destabilization hit call,[9]; 2.5 µM,inactive: 0
same,kinase-Nluc reporter destabilization hit call,[10]; 2.5 µM,inactive: 0
same,kinase-Nluc reporter destabilization hit call,[11]; 2.5 µM,inactive: 0
same,kinase-Nluc reporter destabilization hit call,[12]; 2.5 µM,inactive: 0
same,kinase-Nluc reporter destabilization hit call,[13]; 2.5 µM,inactive: 0
same,kinase-Nluc reporter destabilization hit call,[14]; 2.5 µM,inactive: 0
same,kinase-Nluc reporter destabilization hit call,[15]; 2.5 µM,inactive: 0
same,kinase-Nluc reporter destabilization hit call,[16]; 2.5 µM,inactive: 0
same,kinase-Nluc reporter destabilization hit call,[17]; 2.5 µM,inactive: 0
same,kinase-Nluc reporter destabilization hit call,[18]; 2.5 µM,inactive: 0
same,number of time points,[19]; 2.5 µM,0
same,number of time points,[20]; 2.5 µM,0
CN1CCN(c2ccc3nc(-c4c(N)c5c(F)cccc5[nH]c4=O)[nH]c3c2)CC1 [Dovitinib],kinase-Nluc reporter destabilization hit call,[3]; 2.5 µM,inactive: 0
same,kinase-Nluc reporter destabilization hit call,[4]; 2.5 µM,inactive: 0
same,kinase-Nluc reporter destabilization hit call,[5]; 2.5 µM,inactive: 0
same,kinase-Nluc reporter destabilization hit call,[6]; 2.5 µM,inactive: 0
same,kinase-Nluc reporter destabilization hit call,[7]; 2.5 µM,inactive: 0
same,kinase-Nluc reporter destabilization hit call,[8]; 2.5 µM,inactive: 0
same,kinase-Nluc reporter destabilization hit call,[9]; 2.5 µM,inactive: 0
same,kinase-Nluc reporter destabilization hit call,[10]; 2.5 µM,inactive: 0
same,kinase-Nluc reporter destabilization hit call,[11]; 2.5 µM,inactive: 0
same,kinase-Nluc reporter destabilization hit call,[12]; 2.5 µM,inactive: 0
same,kinase-Nluc reporter destabilization hit call,[13]; 2.5 µM,inactive: 0
same,kinase-Nluc reporter destabilization hit call,[14]; 2.5 µM,inactive: 0
same,kinase-Nluc reporter destabilization hit call,[15]; 2.5 µM,inactive: 0
same,kinase-Nluc reporter destabilization hit call,[16]; 2.5 µM,inactive: 0
same,kinase-Nluc reporter destabilization hit call,[17]; 2.5 µM,inactive: 0
same,kinase-Nluc reporter destabilization hit call,[18]; 2.5 µM,inactive: 0
same,number of time points,[19]; 2.5 µM,0
same,number of time points,[20]; 2.5 µM,0
O=C(c1ccc(/C=C/c2n[nH]c3ccccc23)cc1)N1CCNCC1,kinase-Nluc reporter destabilization hit call,[1]; 2.5 µM,inactive: 0
same,kinase-Nluc reporter destabilization hit call,[2]; 2.5 µM,inactive: 0
same,kinase-Nluc reporter destabilization hit call,[3]; 2.5 µM,inactive: 0
same,kinase-Nluc reporter destabilization hit call,[4]; 2.5 µM,inactive: 0
same,kinase-Nluc reporter destabilization hit call,[5]; 2.5 µM,inactive: 0
same,kinase-Nluc reporter destabilization hit call,[6]; 2.5 µM,inactive: 0
same,kinase-Nluc reporter destabilization hit call,[7]; 2.5 µM,inactive: 0
same,kinase-Nluc reporter destabilization hit call,[8]; 2.5 µM,inactive: 0
same,kinase-Nluc reporter destabilization hit call,[10]; 2.5 µM,inactive: 0
same,kinase-Nluc reporter destabilization hit call,[11]; 2.5 µM,inactive: 0
same,kinase-Nluc reporter destabilization hit call,[12]; 2.5 µM,inactive: 0
same,kinase-Nluc reporter destabilization hit call,[13]; 2.5 µM,inactive: 0
same,kinase-Nluc reporter destabilization hit call,[14]; 2.5 µM,inactive: 0
same,kinase-Nluc reporter destabilization hit call,[15]; 2.5 µM,inactive: 0
same,kinase-Nluc reporter destabilization hit call,[16]; 2.5 µM,inactive: 0
same,kinase-Nluc reporter destabilization hit call,[17]; 2.5 µM,inactive: 0
same,kinase-Nluc reporter destabilization hit call,[18]; 2.5 µM,inactive: 0
same,number of time points,[19]; 2.5 µM,0
same,number of time points,[20]; 2.5 µM,0

# Shown with tabs: entries from further up.
compound	measurement	setting	value
Cc1ccc(Nc2nccc(N(C)c3ccc4c(C)n(C)nc4c3)n2)cc1S(N)(=O)=O [Pazopanib]	kinase-Nluc reporter destabilization hit call	[3]; 10 µM	inactive: 0
same	kinase-Nluc reporter destabilization hit call	[5]; 10 µM	inactive: 0
CN1CCN(c2ccc3nc(-c4c(N)c5c(F)cccc5[nH]c4=O)[nH]c3c2)CC1 [Dovitinib]	kinase-Nluc reporter destabilization hit call	[15]; 2.5 µM	inactive: 0

# Reprinted at random: two records from the list
compound,measurement,setting,value
CC(C)[C@@](C)(O)[C@@H]1CN(c2nc(-c3[nH]nc4ncccc34)c(F)cc2Cl)CCN1,kinase-Nluc reporter destabilization hit call,[11]; 10 µM,inactive: 0
O=C(c1ccc(/C=C/c2n[nH]c3ccccc23)cc1)N1CCNCC1,kinase-Nluc reporter destabilization hit call,[15]; 2.5 µM,inactive: 0

# — the supplement of paper PMC12823440, “Inhibitors supercharge kinase turnover through native proteolytic circuits” (Nature, 2025)
